Laboratory results reported in PMC9904299.
Results are given in words; binding and its absence hold for the method and conditions named. Binding seen in cells or lysates may run through a third protein. Binding can be weak; no strength is given. Where a sequence is shown, tags or fusion partners need not be part of it.

Molecular target: FLAG-tagged human Ndufaf2 (human)
Assay: co-IP; HEK293 cells co-transfected with FLAG-Ndufaf2 and tGFP-tagged MSR for 24 h; IP lysis buffer (25 mM Tris pH 7.4, 150 mM NaCl, 1 mM EDTA, 1% NP-40, 5% glycerol); anti-FLAG antibody and protein A Dynabeads at room temperature; blot with anti-tGFP

B1: human MSRB3 tagged with turboGFP (enzyme, UniProt Q8IXL7 33-192)
chain: GSCRDKKNCKVVFSQQELRKRLTPLQYHVTQEKGTESAFEGEYTHHKDPGIYKCVVCGTPLFKSETKFDSGSGWPSFHDVINSEAITFTDDFSYGMHRVETSCSQCGAHLGHIFDDGPRPTGKRYCINSAALSFTPADSSGTAEGGSGVASPAQADKAEL
- binding: binds
